PubChem BioAssay AID504774 – Drosophila RNAi Screening Center – 2011
The deposit covers about 23,000 reagents; shown is a random part of those with a known target gene and a result. 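Values are quantile-normalised luminescence on an arbitrary scale; higher means more cells surviving MMS.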 Reagents against one gene are numbered here. Not all columns of the deposit are shown. No sequences are given here.

Purpose: 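Knock-downs that shift viability of MMS-exposed cells relative to untreated ones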 (primary screen)
Cells: Drosophila Kc167 cells
Reagent: long dsRNA against Drosophila genes, about 0.25 µg dsRNA per well
Time to read-out: about 6 days: 3 days knock-down, then 3 days with or without MMS
Challenge: methyl methanesulphonate 0.004% (w/v) for 3 days after knock-down
Detection: 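Viability in wells given MMS, read as ATP luminescence, normalised by quantiles plate by plate and averaged across replicates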
Scale: mean viability with MMS and viability with MMS: higher = more surviving cells after MMS

Fancm (Fanconi anemia group M helicase) → mean viability with MMS = 3.52e6; viability with MMS, replicate 1 = 3.98e6
CG17930 → mean viability with MMS = 3.57e6; viability with MMS, replicate 1 = 4.07e6
Elp3 (Elongator complex protein 3) → mean viability with MMS = 3.46e6; viability with MMS, replicate 1 = 4.00e6
CG17190 → mean viability with MMS = 3.58e6; viability with MMS, replicate 1 = 4.04e6
GstE4 (Glutathione S transferase E4) → mean viability with MMS = 3.58e6; viability with MMS, replicate 1 = 3.86e6
CG13445 → mean viability with MMS = 3.53e6; viability with MMS, replicate 1 = 3.98e6
fne (found in neurons) #1 → mean viability with MMS = 3.46e6; viability with MMS, replicate 1 = 3.89e6
fne (found in neurons) #2 → mean viability with MMS = 3.59e6; viability with MMS, replicate 1 = 3.98e6
CG7179 → mean viability with MMS = 3.31e6; viability with MMS, replicate 1 = 3.66e6
CG8675 → mean viability with MMS = 3.85e6; viability with MMS, replicate 1 = 4.48e6
Idh3g → mean viability with MMS = 3.66e6; viability with MMS, replicate 1 = 4.11e6
YL-1 → mean viability with MMS = 3.59e6; viability with MMS, replicate 1 = 4.28e6
CG3557 → mean viability with MMS = 3.63e6; viability with MMS, replicate 1 = 4.23e6
Obp49a (Odorant-binding protein 49a) → mean viability with MMS = 3.72e6; viability with MMS, replicate 1 = 4.11e6
Prp18 → mean viability with MMS = 3.44e6; viability with MMS, replicate 1 = 3.90e6
Tsp42Ef (Tetraspanin 42Ef) → mean viability with MMS = 3.59e6; viability with MMS, replicate 1 = 4.08e6
CG6978 → mean viability with MMS = 3.66e6; viability with MMS, replicate 1 = 4.12e6
lace → mean viability with MMS = 3.53e6; viability with MMS, replicate 1 = 4.06e6
Pka-C1 (Protein kinase, cAMP-dependent, catalytic subunit 1) #1 → mean viability with MMS = 3.58e6; viability with MMS, replicate 1 = 4.13e6
Pka-C1 (Protein kinase, cAMP-dependent, catalytic subunit 1) #2 → mean viability with MMS = 3.73e6; viability with MMS, replicate 1 = 4.23e6
Adck1 (aarF domain containing kinase 1) → mean viability with MMS = 3.56e6; viability with MMS, replicate 1 = 4.08e6
ome (omega) #1 → mean viability with MMS = 3.55e6; viability with MMS, replicate 1 = 4.01e6
ome (omega) #2 → mean viability with MMS = 3.70e6; viability with MMS, replicate 1 = 4.07e6
ome (omega) #3 → mean viability with MMS = 3.66e6; viability with MMS, replicate 1 = 4.23e6

Entries listed so far whose gene name starts with P or p (3):
Prp18 → mean viability with MMS = 3.44e6; viability with MMS, replicate 1 = 3.90e6
Pka-C1 (Protein kinase, cAMP-dependent, catalytic subunit 1) #1 → mean viability with MMS = 3.58e6; viability with MMS, replicate 1 = 4.13e6
Pka-C1 (Protein kinase, cAMP-dependent, catalytic subunit 1) #2 → mean viability with MMS = 3.73e6; viability with MMS, replicate 1 = 4.23e6
